2 substances from PMC10599278 can be followed below.

Sequences of proteins named here, by UniProt entry; tags and fusion partners are left off.
UniProt O60260: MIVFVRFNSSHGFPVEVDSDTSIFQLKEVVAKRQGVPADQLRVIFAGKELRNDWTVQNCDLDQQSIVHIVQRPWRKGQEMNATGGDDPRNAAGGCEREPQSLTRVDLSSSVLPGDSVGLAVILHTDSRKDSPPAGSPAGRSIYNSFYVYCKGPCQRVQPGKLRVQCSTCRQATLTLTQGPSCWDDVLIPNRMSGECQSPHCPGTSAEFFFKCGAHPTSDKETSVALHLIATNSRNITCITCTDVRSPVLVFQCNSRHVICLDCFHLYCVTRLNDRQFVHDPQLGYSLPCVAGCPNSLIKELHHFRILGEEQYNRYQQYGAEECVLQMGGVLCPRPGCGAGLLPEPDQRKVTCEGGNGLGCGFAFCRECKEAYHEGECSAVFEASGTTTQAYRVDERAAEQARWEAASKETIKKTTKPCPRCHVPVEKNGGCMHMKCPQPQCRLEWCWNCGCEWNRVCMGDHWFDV
UniProt O00425: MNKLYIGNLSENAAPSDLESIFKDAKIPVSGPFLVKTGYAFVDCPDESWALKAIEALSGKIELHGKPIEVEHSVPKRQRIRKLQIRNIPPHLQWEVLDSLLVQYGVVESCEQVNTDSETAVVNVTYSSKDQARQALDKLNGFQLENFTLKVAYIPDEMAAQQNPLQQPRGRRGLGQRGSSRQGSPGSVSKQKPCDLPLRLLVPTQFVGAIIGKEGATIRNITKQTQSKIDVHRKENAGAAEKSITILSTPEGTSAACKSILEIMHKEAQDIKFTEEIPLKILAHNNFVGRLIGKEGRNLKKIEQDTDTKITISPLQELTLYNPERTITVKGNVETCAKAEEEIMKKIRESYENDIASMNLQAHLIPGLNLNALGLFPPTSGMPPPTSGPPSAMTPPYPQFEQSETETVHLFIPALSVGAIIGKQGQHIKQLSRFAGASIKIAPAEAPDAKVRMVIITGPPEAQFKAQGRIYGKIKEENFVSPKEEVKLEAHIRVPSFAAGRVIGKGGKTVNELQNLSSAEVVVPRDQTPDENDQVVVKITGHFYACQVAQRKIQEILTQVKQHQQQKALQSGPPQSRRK

Results are given in words; binding and its absence hold for the method and conditions named. Binding seen in cells or lysates may run through a third protein. Some entries that bind do so weakly or less than the wild type.

The target of assay [1] is Flag-Parkin (UniProt O60260). The assay is described as follows: co-IP; HeLa cells co-overexpressing GFP-IGF2BP3 and Flag-Parkin (wild type or mutant), treated with SAHA (2.5 μM, 12 h); pulldown by FLAG, IGF2BP3 measured by blot.
The target in assay [2] is Flag-Parkin (UniProt O60260). The assay is described as follows: co-IP; HEK293 cells cotransfected with Flag-Parkin and GFP-IGF2BP3; IP and reverse IP; lysates in IP buffer with antibodies overnight at 4°C, washed three times, immunoblot. A general note: Immunoblotting shows a protein as a band on a membrane.
Assay [3] concerns the target GFP-IGF2BP3 (human) (UniProt O00425). The description is as above.

With GFP-IGF2BP3 (from UniProt O00425 1-579), the binding result in assay [1] and in assay [2] was “binds” in each case. Turning to “Flag-Parkin (from UniProt O60260 1-465) (enzyme)”, the binding result in assay [3] was “binds”.
